Experimental data: the supplement of paper PMC10849652
This is one part of the list.

By UniProt entry, the sequences of proteins in these tests, tags left out. Where a name states a change or a piece, a line headed by the entry shows the natural chain unless it says otherwise.
UniProt P14625, whole entry, looked up: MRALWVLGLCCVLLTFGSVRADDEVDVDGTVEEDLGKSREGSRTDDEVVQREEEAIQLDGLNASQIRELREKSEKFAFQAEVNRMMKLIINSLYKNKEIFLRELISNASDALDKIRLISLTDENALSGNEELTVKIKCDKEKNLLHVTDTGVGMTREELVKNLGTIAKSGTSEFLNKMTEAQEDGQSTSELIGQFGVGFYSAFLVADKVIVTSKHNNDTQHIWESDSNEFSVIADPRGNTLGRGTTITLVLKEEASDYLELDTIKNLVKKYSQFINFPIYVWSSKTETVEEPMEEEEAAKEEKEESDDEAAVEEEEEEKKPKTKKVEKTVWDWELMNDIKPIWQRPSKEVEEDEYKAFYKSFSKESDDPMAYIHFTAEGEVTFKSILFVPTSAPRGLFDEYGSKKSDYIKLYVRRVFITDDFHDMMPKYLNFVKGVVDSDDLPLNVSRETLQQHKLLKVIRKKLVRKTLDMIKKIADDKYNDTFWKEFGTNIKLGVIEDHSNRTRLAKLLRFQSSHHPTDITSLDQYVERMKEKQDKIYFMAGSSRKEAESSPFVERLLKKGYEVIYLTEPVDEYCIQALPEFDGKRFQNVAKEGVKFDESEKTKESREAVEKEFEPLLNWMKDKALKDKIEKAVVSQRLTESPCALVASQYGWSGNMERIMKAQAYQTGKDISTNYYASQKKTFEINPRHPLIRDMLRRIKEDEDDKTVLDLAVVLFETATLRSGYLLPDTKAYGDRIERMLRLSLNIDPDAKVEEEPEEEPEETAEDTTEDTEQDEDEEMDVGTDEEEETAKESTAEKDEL
UniProt P61604, whole entry, looked up: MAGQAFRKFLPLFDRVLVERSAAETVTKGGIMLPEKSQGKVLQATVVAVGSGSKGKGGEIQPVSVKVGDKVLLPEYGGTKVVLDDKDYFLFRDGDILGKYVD
UniProt Q01581: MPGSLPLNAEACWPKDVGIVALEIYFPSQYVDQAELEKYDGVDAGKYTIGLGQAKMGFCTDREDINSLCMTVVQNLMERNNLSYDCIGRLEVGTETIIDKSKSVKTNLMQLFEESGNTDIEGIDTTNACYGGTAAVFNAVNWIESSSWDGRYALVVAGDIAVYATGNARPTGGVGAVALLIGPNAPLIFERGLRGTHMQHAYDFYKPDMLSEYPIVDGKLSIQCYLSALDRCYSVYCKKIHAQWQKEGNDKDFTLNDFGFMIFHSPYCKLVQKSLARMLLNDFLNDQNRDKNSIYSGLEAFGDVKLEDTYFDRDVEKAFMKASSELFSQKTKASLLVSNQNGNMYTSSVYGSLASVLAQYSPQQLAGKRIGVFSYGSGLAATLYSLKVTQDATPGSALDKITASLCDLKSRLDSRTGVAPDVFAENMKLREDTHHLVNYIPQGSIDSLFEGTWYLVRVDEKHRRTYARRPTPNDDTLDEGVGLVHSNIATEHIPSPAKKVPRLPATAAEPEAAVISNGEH
UniProt Q92598: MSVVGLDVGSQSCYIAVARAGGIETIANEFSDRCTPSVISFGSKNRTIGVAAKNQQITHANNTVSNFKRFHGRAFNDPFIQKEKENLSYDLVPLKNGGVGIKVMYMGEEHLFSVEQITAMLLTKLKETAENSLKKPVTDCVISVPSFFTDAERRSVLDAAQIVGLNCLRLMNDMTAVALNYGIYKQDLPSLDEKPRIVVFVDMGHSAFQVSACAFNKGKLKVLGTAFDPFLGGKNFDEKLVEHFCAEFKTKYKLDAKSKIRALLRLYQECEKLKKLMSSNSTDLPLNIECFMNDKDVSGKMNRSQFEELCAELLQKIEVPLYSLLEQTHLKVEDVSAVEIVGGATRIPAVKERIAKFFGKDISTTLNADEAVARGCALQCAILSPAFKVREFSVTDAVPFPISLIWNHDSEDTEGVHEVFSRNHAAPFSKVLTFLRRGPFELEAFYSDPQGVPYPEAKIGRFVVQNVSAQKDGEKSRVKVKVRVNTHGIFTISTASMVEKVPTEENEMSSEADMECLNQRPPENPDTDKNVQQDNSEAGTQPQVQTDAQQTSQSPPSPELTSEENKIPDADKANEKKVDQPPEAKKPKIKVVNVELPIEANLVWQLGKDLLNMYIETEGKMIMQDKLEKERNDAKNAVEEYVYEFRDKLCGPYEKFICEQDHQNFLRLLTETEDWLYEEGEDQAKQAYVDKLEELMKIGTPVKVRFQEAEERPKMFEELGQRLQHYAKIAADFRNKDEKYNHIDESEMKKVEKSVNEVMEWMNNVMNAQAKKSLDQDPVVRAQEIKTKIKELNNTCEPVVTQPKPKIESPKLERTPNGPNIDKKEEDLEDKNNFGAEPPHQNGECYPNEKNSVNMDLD
UniProt P04792, whole entry, looked up: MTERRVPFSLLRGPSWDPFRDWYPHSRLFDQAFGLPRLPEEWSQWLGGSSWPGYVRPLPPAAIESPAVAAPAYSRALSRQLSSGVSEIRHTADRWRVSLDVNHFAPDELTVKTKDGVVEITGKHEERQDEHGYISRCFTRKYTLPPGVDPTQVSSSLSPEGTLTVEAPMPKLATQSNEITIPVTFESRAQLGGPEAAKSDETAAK
UniProt Q14773: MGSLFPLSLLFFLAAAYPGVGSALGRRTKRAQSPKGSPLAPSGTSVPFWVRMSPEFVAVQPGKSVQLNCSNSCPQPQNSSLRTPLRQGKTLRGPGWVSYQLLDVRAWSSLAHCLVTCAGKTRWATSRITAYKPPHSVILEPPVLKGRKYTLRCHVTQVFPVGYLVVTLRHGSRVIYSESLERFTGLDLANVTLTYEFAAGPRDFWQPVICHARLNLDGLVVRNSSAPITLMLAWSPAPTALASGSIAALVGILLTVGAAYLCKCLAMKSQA
UniProt P17096: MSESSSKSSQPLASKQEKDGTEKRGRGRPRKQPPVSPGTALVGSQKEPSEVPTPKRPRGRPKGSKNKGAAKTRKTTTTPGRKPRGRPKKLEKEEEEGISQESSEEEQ
UniProt P54652, whole entry, looked up: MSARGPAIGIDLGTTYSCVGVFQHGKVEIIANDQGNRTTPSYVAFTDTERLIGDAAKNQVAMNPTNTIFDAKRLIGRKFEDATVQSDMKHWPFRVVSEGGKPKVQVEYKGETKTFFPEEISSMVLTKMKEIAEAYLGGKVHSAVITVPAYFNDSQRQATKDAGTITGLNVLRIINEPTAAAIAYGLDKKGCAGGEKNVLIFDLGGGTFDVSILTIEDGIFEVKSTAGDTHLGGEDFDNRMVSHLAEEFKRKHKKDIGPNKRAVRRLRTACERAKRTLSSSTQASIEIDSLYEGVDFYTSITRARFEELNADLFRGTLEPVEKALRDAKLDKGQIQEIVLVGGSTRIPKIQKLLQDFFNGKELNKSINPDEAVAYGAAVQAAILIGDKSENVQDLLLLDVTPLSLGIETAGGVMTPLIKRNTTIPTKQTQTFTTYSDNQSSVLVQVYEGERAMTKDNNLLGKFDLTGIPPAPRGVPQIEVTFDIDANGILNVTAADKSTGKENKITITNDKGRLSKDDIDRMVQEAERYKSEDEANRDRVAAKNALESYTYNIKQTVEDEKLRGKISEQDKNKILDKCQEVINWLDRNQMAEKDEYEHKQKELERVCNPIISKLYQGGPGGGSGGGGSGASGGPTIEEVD
UniProt P08238, whole entry, looked up: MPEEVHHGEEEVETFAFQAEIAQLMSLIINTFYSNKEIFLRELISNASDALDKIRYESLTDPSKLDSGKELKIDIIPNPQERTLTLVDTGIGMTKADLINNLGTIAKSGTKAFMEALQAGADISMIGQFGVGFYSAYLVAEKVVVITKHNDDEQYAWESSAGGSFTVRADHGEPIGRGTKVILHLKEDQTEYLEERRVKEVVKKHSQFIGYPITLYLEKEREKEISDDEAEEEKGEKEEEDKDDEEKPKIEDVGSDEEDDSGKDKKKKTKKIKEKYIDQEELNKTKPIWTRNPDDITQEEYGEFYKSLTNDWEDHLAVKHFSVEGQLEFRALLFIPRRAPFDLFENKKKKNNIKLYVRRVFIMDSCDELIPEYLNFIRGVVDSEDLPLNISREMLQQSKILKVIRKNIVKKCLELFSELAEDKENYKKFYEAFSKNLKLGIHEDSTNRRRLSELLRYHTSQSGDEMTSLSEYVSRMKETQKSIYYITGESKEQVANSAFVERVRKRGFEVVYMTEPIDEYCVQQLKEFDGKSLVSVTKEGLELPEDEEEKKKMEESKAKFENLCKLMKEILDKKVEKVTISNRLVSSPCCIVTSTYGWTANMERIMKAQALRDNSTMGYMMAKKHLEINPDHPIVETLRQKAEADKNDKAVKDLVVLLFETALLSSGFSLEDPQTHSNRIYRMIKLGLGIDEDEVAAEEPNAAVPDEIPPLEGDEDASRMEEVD
UniProt P0DMV8, whole entry, looked up: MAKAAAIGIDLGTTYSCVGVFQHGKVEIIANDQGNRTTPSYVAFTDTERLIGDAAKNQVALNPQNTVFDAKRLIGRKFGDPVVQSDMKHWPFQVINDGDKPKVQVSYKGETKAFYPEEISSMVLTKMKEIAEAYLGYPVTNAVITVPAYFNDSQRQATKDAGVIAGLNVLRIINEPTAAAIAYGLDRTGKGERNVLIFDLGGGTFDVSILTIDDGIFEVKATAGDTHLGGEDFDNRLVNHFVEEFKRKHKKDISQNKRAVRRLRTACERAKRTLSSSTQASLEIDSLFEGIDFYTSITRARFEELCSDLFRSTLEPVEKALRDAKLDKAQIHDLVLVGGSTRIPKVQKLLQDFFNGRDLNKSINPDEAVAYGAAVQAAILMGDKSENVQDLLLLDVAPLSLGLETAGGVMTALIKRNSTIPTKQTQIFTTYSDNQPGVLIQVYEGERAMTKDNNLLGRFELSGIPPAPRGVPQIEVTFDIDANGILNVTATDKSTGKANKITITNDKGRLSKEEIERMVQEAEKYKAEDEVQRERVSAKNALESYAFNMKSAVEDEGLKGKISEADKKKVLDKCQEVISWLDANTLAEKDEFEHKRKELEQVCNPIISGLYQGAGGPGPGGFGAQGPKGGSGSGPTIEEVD
UniProt P52789: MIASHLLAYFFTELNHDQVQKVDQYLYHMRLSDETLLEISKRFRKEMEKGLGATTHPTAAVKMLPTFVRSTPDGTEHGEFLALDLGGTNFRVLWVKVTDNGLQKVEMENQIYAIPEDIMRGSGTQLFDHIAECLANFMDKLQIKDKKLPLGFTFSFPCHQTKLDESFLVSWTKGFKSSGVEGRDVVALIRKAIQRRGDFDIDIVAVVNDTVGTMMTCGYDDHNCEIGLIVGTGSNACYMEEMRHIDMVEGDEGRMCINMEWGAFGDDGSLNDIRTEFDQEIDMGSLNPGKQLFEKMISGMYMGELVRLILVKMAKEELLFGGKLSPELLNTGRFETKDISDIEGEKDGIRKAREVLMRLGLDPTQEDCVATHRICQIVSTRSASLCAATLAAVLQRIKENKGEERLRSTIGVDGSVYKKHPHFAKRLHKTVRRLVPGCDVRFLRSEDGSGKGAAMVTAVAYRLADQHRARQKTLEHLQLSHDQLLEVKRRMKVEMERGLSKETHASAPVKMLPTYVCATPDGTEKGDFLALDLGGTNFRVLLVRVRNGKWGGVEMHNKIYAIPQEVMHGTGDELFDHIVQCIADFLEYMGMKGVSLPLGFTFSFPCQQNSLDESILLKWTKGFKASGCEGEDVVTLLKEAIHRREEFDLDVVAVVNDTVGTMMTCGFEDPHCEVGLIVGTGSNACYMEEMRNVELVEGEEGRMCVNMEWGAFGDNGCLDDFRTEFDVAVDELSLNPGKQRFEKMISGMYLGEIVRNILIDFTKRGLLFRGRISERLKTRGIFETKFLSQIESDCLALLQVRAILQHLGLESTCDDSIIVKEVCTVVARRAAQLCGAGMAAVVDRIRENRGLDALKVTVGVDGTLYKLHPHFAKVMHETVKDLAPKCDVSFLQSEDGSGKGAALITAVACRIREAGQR
UniProt Q9BW71: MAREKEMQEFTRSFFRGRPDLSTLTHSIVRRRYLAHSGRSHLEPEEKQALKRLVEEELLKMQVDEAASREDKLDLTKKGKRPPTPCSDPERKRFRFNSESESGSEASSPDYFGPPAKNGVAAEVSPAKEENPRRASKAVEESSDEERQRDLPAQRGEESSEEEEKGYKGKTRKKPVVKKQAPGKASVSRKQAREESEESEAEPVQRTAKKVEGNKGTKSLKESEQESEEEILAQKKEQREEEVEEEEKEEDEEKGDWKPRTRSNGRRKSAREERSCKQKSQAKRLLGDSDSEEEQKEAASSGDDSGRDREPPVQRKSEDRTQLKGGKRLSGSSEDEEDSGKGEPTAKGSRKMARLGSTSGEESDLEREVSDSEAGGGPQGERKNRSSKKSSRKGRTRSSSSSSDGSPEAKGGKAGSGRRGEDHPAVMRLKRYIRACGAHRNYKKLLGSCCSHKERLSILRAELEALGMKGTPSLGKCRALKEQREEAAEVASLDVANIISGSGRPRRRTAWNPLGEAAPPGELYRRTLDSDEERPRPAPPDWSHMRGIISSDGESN
UniProt P17482: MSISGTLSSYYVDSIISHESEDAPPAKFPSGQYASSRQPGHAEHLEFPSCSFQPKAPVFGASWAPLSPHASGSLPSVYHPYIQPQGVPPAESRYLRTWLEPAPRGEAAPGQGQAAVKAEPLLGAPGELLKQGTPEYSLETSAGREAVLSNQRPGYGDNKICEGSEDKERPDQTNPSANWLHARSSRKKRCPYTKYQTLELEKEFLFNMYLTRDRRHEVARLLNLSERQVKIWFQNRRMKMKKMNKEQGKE

How the values were obtained:
Assay in all cases: log2 fold change, soluble protein after heating vs DMSO (PISA); higher = thermal stabilisation; K562 cells, 10 uM, 30 min; active = over 0.2 and 3.5 SD of the protein, either way, in both replicates (recomputed)
[1] = compound: NC(=O)Nc1cc(-c2cccc(F)c2)sc1C(=O)N[C@H]1CCCNC1
Method in brief: (§1)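 K562 cells (2×10^6 cells/mL) were treated with 10 μM compound for 30 min, and aliquots were heated for 3 min over 48°C-58°C. Pooled aliquots were extracted in PBS with 0.5% NP-40 at 4°C, and the supernatant after 21,000xg for 90 min was measured by TMTpro 16plex LC-MS/MS with channel sums equalised. Reported thermal stability, relative to control samples and from duplicates, is a log2 fold change.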

[2] = compound: NC(=O)c1cnc(N[C@@H]2CCCC[C@@H]2N)nc1Nc1cccc(-n2nccn2)c1
Method in brief: as §1

[3] = compound: NC1(c2ccc(-c3nc4ccn5c(=O)[nH]nc5c4cc3-c3ccccc3)cc2)CCC1
Method in brief: as §1

[4] = compound: NCC(=O)Nc1ccc(-n2nc(C(F)(F)F)cc2-c2ccc3c(ccc4ccccc43)c2)cc1
Method in brief: as §1

[5] = compound: Nc1ccccc1NC(=O)c1ccc(CNC(=O)OCc2cccnc2)cc1 [entinostat]
Method in brief: as §1

[6] = compound: O=C(CCCCCCC(=O)Nc1ccccc1)NO [vorinostat]
Method in brief: as §1

[7] = compound: O=C(CCCCCCNC(=O)c1cnc(N(c2ccccc2)c2ccccc2Cl)nc1)NO [citarinostat]
Method in brief: as §1

[8] = compound: O=C(O)c1ccc2c(c1)nc(Nc1cccc(Cl)c1)c1ccncc12 [silmitasertib]
Method in brief: as §1

[9] = compound: O=C1NC(=O)C(c2cnc3ccccn23)=C1c1cn2c3c(cc(F)cc13)CN(C(=O)N1CCCCC1)CC2
Method in brief: as §1

[10] = compound: c1cc(OCCN2CCCCC2)cc(-c2n[nH]c3ccc(-c4nnc[nH]4)cc23)c1
Method in brief: as §1

[11] = compound: c1cn2cc(-c3ccc4cn[nH]c4c3)nc(Nc3ccc(N4CCOCC4)cc3)c2n1 [entospletinib]
Method in brief: as §1

Row | Target | log2 fold change [1] | log2 fold change [2] | log2 fold change [3] | log2 fold change [4] | log2 fold change [5] | log2 fold change [6] | log2 fold change [7] | log2 fold change [8] | log2 fold change [9] | log2 fold change [10] | log2 fold change [11]
1 | HMGCLL1 (UniProt Q8TB92) | inactive: -0.036 | inactive: -0.053 | inactive: -0.08 | inactive: -0.082 | inactive: 0.01 | inactive: -0.06 | inactive: -0.046 | inactive: -0.045 | inactive: -0.028 | inactive: 0.008 | inactive: -0.043
2 | HSDL1 (UniProt Q3SXM5) | inactive: -0.018 | inactive: -0.02 | inactive: -0.017 | inactive: -0.005 | inactive: -0.053 | inactive: -0.042 | inactive: 0.003 | inactive: -0.002 | inactive: -0.016 | inactive: -0.038 | inactive: 0.015
3 | HSP90B1 (UniProt P14625) | inactive: -0.02 | inactive: -0.013 | inactive: 0.018 | inactive: 0.008 | inactive: 0.001 | inactive: -0.009 | inactive: -0.02 | inactive: -0.032 | inactive: -0.038 | inactive: -0.048 | inactive: -0.037
4 | HK1 isoform 2 (UniProt P19367) | inactive: 0.028 | inactive: -0.008 | inactive: -0.042 | inactive: -0.021 | inactive: 0.005 | inactive: 0.01 | inactive: 0.029 | inactive: -0.007 | inactive: -0.014 | inactive: 0.006 | inactive: -0.13
5 | HSPE1 (UniProt P61604) | inactive: -0.016 | inactive: -0.083 | inactive: 0.061 | inactive: -0.025 | inactive: 0.03 | inactive: -0.066 | inactive: 0.011 | inactive: -0.027 | inactive: -0.09 | inactive: 0 | inactive: -0.001
6 | HMGCS1 (UniProt Q01581) | inactive: -0.023 | inactive: -0.002 | inactive: -0.064 | inactive: 0.02 | inactive: 0.018 | inactive: 0.002 | inactive: 0.03 | inactive: -0.017 | inactive: -0.033 | inactive: -0.033 | inactive: -0.029
7 | HSPH1 (UniProt Q92598) | inactive: -0.039 | inactive: -0.005 | inactive: -0.034 | inactive: -0.015 | inactive: 0.033 | inactive: 0.024 | inactive: 0.014 | inactive: 0.047 | inactive: -0.038 | inactive: -0.019 | inactive: 0.001
8 | HSD17B7 (UniProt P56937) | inactive: -0.011 | inactive: 0 | inactive: -0.186 | inactive: -0.027 | inactive: 0.027 | inactive: 0.066 | inactive: 0.098 | inactive: 0.017 | inactive: -0.082 | inactive: -0.083 | inactive: -0.029
9 | HSPA14 (UniProt Q0VDF9) | inactive: -0.053 | inactive: -0.057 | inactive: -0.05 | inactive: -0.058 | inactive: 0.059 | inactive: 0.094 | inactive: 0.033 | inactive: 0.054 | inactive: 0.129 | inactive: -0.115 | inactive: -0.018
10 | HINT1 (UniProt P49773) | inactive: -0.053 | inactive: -0.083 | inactive: -0.015 | inactive: -0.035 | inactive: 0.012 | inactive: -0.117 | inactive: -0.006 | inactive: -0.024 | inactive: -0.081 | inactive: -0.027 | inactive: 0.065
11 | HMCN1 (UniProt Q96RW7) | inactive: -0.038 | inactive: 0.083 | inactive: 0.216 | inactive: 0.036 | inactive: -0.006 | inactive: 0.073 | inactive: 0.013 | inactive: 0.076 | inactive: 0.127 | inactive: 0.537 | inactive: 0.136
12 | HSPB1 (UniProt P04792) | inactive: -0.034 | inactive: -0.037 | inactive: 0.007 | inactive: -0.004 | inactive: 0.028 | inactive: -0.008 | inactive: -0.031 | inactive: 0.056 | inactive: 0.043 | inactive: -0.081 | inactive: 0.017
13 | ICAM4 (UniProt Q14773) | inactive: 0.098 | inactive: -0.044 | inactive: -0.057 | inactive: 0.032 | inactive: 0.03 | inactive: -0.091 | inactive: 0.023 | inactive: 0.028 | inactive: 0 | inactive: -0.203 | inactive: -0.057
14 | HMGA1 (UniProt P17096) | inactive: 0 | inactive: 0.07 | inactive: 0.309 | inactive: 0.046 | inactive: -0.099 | inactive: -0.017 | inactive: -0.138 | inactive: -0.139 | inactive: 0.107 | inactive: -0.06 | inactive: 0.099
15 | HIBCH (UniProt Q6NVY1) | inactive: -0.01 | inactive: -0.057 | inactive: -0.08 | inactive: -0.065 | inactive: 0.037 | inactive: 0.015 | inactive: 0.015 | inactive: -0.007 | inactive: -0.007 | inactive: -0.012 | inactive: 0.016
16 | HMCES (UniProt Q96FZ2) | inactive: 0.039 | inactive: -0.012 | inactive: -0.049 | – | inactive: 0.028 | – | inactive: 0.039 | inactive: -0.114 | inactive: -0.207 | inactive: -0.133 | inactive: -0.031
17 | HSPA2 (UniProt P54652) | inactive: -0.015 | inactive: 0.076 | inactive: -0.071 | – | inactive: -0.039 | – | – | inactive: 0.006 | – | – | –
18 | HSP90AB1 (UniProt P08238) | inactive: 0 | inactive: 0.015 | inactive: -0.066 | inactive: -0.033 | inactive: 0.015 | inactive: 0.063 | inactive: 0.036 | inactive: -0.005 | inactive: -0.022 | inactive: -0.003 | inactive: 0.013
19 | HSP90AB4P (UniProt Q58FF6) | inactive: -0.086 | inactive: -0.435 | inactive: -0.54 | – | inactive: 0.001 | – | inactive: -0.003 | inactive: 0.267 | inactive: -0.097 | inactive: 0.022 | inactive: -0.237
20 | HUWE1 isoform 2 (UniProt Q7Z6Z7) | inactive: -0.067 | inactive: -0.112 | – | – | inactive: 0.112 | – | – | – | – | – | –
21 | HSPA1L (UniProt P34931) | inactive: -0.006 | inactive: -0.025 | inactive: 0.031 | inactive: -0.224 | inactive: -0.084 | inactive: 0.273 | inactive: -0.052 | inactive: -0.052 | inactive: -0.126 | inactive: 0.03 | inactive: 0.05
22 | HSPA1A (UniProt P0DMV8) | inactive: -0.003 | inactive: 0.025 | inactive: 0.066 | inactive: 0.025 | inactive: -0.002 | inactive: -0.062 | inactive: -0.069 | inactive: -0.025 | inactive: -0.012 | inactive: -0.017 | inactive: 0.061
23 | HNRNPLL (UniProt Q8WVV9) | inactive: -0.169 | inactive: -0.028 | inactive: -0.151 | inactive: -0.072 | inactive: 0.184 | inactive: 0.231 | inactive: 0.202 | inactive: -0.049 | inactive: -0.268 | inactive: -0.18 | inactive: 0.083
24 | HK2 (UniProt P52789) | inactive: 0.003 | inactive: -0.012 | inactive: -0.059 | inactive: 0.016 | inactive: 0.022 | inactive: 0.048 | inactive: 0.046 | inactive: -0.021 | inactive: -0.065 | inactive: -0.059 | active: -0.54
25 | HSPA6 (UniProt P17066) | inactive: -0.02 | inactive: -0.018 | inactive: 0.003 | inactive: -0.012 | inactive: -0.02 | inactive: -0.053 | inactive: -0.009 | inactive: 0.032 | inactive: -0.012 | inactive: -0.04 | inactive: 0.025
26 | HSP90AB3P (UniProt Q58FF7) | inactive: 0.015 | inactive: -0.023 | inactive: -0.175 | – | inactive: -0.038 | inactive: 0.104 | inactive: 0.04 | inactive: -0.028 | – | inactive: 0.071 | inactive: 0.016
27 | HIRIP3 (UniProt Q9BW71) | inactive: -0.013 | inactive: -0.053 | inactive: -0.046 | inactive: -0.01 | inactive: 0.002 | inactive: 0.004 | inactive: 0.04 | inactive: -0.011 | inactive: -0.029 | inactive: -0.023 | inactive: -0.029
28 | ICAM5 (UniProt Q9UMF0) | inactive: 0.099 | inactive: -0.321 | inactive: -0.007 | inactive: -0.028 | inactive: -0.011 | – | inactive: 0.13 | inactive: 0.004 | inactive: -0.016 | inactive: 0.11 | inactive: -0.048
29 | HOXB9 (UniProt P17482) | inactive: -0.016 | inactive: -0.024 | inactive: -0.092 | inactive: 0.005 | inactive: 0.113 | – | inactive: 0.155 | inactive: -0.069 | inactive: -0.02 | inactive: -0.162 | inactive: -0.028

Looked up one by one from the entries so far (two):
Row | Target | log2 fold change [1] | log2 fold change [2] | log2 fold change [3] | log2 fold change [4] | log2 fold change [5] | log2 fold change [6] | log2 fold change [7] | log2 fold change [8] | log2 fold change [9] | log2 fold change [10] | log2 fold change [11]
24 | HK2 (UniProt P52789) | inactive: 0.003 | inactive: -0.012 | inactive: -0.059 | inactive: 0.016 | inactive: 0.022 | inactive: 0.048 | inactive: 0.046 | inactive: -0.021 | inactive: -0.065 | inactive: -0.059 | active: -0.54
9 | HSPA14 (UniProt Q0VDF9) | inactive: -0.053 | inactive: -0.057 | inactive: -0.05 | inactive: -0.058 | inactive: 0.059 | inactive: 0.094 | inactive: 0.033 | inactive: 0.054 | inactive: 0.129 | inactive: -0.115 | inactive: -0.018
